Measurements published in publication PMC5386674.
Results are given in words; binding and its absence hold for the method and conditions named. Binding seen in cells or lysates may run through a third protein. Some results given as binding are weak or reduced against the parent protein; the word gives no strength.

The chains behind the UniProt entries cited, without tags or fusion partners.
UniProt Q13485: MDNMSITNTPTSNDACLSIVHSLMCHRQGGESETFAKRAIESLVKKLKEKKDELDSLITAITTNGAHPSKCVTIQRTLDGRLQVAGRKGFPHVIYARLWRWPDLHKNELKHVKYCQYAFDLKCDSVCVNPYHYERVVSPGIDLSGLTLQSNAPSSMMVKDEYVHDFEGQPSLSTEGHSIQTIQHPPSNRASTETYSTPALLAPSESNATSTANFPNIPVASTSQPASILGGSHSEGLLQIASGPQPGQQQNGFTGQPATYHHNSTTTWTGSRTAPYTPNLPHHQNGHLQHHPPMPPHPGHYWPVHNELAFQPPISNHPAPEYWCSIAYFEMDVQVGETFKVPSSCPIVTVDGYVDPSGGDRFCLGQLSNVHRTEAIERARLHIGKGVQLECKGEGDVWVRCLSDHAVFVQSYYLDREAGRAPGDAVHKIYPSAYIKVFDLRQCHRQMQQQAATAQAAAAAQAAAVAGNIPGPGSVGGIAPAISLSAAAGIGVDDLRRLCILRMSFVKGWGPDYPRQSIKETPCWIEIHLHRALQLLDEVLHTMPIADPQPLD

Target: T1, WWOX (WW domain-containing oxidoreductase), endogenous human (human (endogenous in THP-1, U937, SK-N-SH, Jurkat, MCF7)) (UniProt Q9NZC7)
T1 sequence: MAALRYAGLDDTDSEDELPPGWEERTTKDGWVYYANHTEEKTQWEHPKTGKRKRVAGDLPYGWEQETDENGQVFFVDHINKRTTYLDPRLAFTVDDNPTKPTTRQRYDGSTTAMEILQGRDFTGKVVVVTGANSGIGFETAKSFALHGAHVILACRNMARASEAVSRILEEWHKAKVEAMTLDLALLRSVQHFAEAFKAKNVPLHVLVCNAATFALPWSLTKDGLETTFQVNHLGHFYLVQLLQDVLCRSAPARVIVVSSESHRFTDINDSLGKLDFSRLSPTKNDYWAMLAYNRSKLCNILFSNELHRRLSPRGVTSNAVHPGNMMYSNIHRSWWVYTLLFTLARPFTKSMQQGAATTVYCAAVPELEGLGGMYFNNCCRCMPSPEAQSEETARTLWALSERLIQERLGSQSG
Assay: co-IP; MCF7 cells treated with hyaluronidase PH-20 for 1 hr or hyaluronidase-degraded HA; precipitating antibody not stated

For “Smad4, endogenous human (from UniProt Q13485 1-552)”, the binding was “binds”.
